# Reference: article PMC5705219
# Amino acid sequences for entries named in this document (tags omitted).
# UniProt Q9NQV7: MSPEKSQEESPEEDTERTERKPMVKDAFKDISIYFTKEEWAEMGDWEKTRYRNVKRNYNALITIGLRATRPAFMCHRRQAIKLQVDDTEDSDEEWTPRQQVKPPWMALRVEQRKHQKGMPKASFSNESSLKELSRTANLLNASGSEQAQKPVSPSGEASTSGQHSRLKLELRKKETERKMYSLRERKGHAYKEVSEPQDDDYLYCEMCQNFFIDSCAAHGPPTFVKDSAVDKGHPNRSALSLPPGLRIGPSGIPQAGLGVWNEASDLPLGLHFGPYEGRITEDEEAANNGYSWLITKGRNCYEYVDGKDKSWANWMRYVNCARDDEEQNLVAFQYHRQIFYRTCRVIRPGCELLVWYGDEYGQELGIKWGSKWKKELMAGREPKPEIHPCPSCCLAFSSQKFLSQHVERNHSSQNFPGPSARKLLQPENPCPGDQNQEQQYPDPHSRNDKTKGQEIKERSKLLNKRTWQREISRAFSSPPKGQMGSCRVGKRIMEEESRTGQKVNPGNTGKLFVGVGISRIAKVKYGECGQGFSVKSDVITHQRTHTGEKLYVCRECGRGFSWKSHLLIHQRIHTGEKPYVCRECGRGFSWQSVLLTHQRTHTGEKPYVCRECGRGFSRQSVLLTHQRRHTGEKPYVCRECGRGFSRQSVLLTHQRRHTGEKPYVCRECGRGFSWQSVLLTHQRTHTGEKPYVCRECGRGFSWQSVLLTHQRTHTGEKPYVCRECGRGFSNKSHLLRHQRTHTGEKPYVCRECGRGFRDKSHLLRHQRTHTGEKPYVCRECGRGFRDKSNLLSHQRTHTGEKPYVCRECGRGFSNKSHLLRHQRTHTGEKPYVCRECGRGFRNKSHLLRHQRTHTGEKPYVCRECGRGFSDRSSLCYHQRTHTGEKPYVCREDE
# These are yes or no findings as the source states them, for the method shown. In cells and extracts the contact can be indirect. Some binding calls cover weakened binding; strength is not graded here.
# Assays:
# [1] = molecular target: full-length human PRDM9 (B allele), C-terminally tagged with HA or V5 (human) (UniProt Q9NQV7); experiment: co-IP; HEK293T lysates treated with 125 U/ml benzonase and 2 mM MgCl2 for 1 hr at 4 °C (complete DNA digestion) before IP with anti-V5; western blot with anti-HA
# [2] = molecular target: full-length human PRDM9 (B allele), C-terminally tagged with HA or V5 (human) (UniProt Q9NQV7); experiment: co-IP; HEK293T co-transfected with an HA-tagged and a V5-tagged construct; lysis in 1% Triton X-100, 150 mM NaCl, 50 mM Tris pH 8.0; IP with anti-HA or anti-V5 (IgG mock control), 4 °C; western blot against the other tag
substance,measurement,setting,value
"full-length human PRDM9 (B allele), C-terminally tagged with HA or V5 (from UniProt Q9NQV7 1-894)",binding,[1],binds
same,binding,[2],binds
